These are yes or no findings as the source states them, for the method shown. Binding seen in cells or lysates may run through a third protein. For some assays here: Binding can be weak; no strength is given. For some assays here: Sequences can lack the tags named with a protein.
How the values were obtained:
[1] = biological target: T1, FLAG-JunB (UniProt P17275); test: co-IP; 293T cells transiently co-transfected with two tagged proteins; nuclear (in places called cellular) extracts 48 h after transfection, 400 ug; IP with 5 ug anti-FLAG, anti-Myc or anti-6xHis overnight at 4°C, Protein A/G beads; washes with 120 mM and 400 mM NaCl, 0.5% NP-40; Western blot
T1 sequence: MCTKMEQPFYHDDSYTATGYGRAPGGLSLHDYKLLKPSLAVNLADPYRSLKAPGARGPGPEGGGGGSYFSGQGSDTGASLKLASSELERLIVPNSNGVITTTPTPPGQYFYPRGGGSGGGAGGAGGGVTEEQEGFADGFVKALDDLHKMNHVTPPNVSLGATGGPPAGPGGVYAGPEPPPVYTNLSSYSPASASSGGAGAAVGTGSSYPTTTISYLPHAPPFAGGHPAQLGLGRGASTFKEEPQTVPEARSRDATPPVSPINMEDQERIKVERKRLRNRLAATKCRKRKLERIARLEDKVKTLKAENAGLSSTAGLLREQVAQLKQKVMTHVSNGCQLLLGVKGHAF

[2] = biological target: T2, FLAG-JunD (UniProt P17535); test: as above
T2 sequence: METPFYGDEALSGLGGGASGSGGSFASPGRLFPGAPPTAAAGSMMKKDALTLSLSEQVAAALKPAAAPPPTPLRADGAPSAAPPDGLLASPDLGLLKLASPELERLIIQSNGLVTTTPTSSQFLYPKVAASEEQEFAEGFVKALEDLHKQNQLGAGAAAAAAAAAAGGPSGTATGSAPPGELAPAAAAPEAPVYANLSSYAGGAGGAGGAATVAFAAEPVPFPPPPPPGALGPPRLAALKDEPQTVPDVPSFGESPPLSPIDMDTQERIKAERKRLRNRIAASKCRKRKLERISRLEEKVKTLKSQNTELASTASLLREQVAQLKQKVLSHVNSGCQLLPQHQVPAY

[3] = biological target: T1, FLAG-JunB; test: co-IP; competition-binding: nuclear extracts of 293T cells expressing APH-2, c-Jun-HA or FLAG-JunB and increasing amounts of Tax2B-His; IP with FLAG antibodies; Western blot
[4] = biological target: T1, FLAG-JunB; test: co-IP; competition-binding (Additional file 5): nuclear extracts of 293T cells overexpressing tagged APH-2, c-Jun or JunB and Tax2A; IP with FLAG antibodies; Western blot
[5] = biological target: T3, endogenous JunB (human (endogenous in 293T)) (UniProt P17275); test: co-IP; endogenous c-Jun or JunB immunoprecipitated (anti-c-Jun, anti-JunB) from nuclear extracts of 293T cells transfected with FLAG-APH-2; Western blot with anti-FLAG
T3 sequence: T1 sequence

[6] = biological target: APH-2-His (HTLV-2); test: co-IP; 293T cells transiently co-transfected with two tagged proteins; nuclear (in places called cellular) extracts 48 h after transfection, 400 ug; IP with 5 ug anti-FLAG, anti-Myc or anti-6xHis overnight at 4°C, Protein A/G beads; washes with 120 mM and 400 mM NaCl, 0.5% NP-40; Western blot

APH-2-His (HTLV-2) was tested, and the binding [1] was “binds”, the binding [2] was “no binding” and the binding [3] was “binds”. For the same molecule, the binding [4] was “binds”.

In the case of “FLAG-APH-2 (antisense protein of HTLV-2, full-length)”, the binding [5] is reported as “binds”.

“Tax2B-His (expressed in 293T cells) (HTLV-2)” was tested, and the binding [3] was “binds”.

B1: FLAG-JunB (protein, UniProt P17275 1-347)
chain: T1 sequence
B1 was tested, and the binding [6] was “binds”.

B2: FLAG-JunD (protein, UniProt P17535 1-347)
chain: T2 sequence
With B2 the binding [6] was “no binding”.

From paper PMC3531308
